In experiment [1] the target is SR45mutRS2 (Arabidopsis thaliana) (UniProt Q9SEE9). In words: two-hybrid.
Experiment [2] addresses SR45mutRS1+RRM (Arabidopsis thaliana) (UniProt Q9SEE9). In words: two-hybrid.
The target in experiment [3] is SR45mutRRM+RS2 (Arabidopsis thaliana) (UniProt Q9SEE9). In words: two-hybrid.
The target in experiment [4] is SR45mutRS1+RS2 (Arabidopsis thaliana) (UniProt Q9SEE9). In words: two-hybrid.
Experiment [5] deals with SR45mutRS1 (Arabidopsis thaliana) (UniProt Q9SEE9). In words: two-hybrid.
Experiment [6] addresses T1, SR45mutRRM (Arabidopsis thaliana) (UniProt Q9SEE9).
T1 sequence: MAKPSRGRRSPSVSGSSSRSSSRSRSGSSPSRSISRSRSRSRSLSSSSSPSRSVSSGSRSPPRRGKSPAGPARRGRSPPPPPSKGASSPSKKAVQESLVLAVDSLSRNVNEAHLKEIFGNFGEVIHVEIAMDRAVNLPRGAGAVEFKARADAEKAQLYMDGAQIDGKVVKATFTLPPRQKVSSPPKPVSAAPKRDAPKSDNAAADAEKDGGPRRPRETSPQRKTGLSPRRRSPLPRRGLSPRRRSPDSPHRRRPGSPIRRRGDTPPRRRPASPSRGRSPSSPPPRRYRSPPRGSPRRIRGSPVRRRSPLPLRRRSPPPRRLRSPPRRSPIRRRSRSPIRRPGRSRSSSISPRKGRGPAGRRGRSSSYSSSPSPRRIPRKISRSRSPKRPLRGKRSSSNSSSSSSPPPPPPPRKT
In words: two-hybrid.

By UniProt entry, the sequences of proteins in these tests, tags left out.
UniProt Q9LY75: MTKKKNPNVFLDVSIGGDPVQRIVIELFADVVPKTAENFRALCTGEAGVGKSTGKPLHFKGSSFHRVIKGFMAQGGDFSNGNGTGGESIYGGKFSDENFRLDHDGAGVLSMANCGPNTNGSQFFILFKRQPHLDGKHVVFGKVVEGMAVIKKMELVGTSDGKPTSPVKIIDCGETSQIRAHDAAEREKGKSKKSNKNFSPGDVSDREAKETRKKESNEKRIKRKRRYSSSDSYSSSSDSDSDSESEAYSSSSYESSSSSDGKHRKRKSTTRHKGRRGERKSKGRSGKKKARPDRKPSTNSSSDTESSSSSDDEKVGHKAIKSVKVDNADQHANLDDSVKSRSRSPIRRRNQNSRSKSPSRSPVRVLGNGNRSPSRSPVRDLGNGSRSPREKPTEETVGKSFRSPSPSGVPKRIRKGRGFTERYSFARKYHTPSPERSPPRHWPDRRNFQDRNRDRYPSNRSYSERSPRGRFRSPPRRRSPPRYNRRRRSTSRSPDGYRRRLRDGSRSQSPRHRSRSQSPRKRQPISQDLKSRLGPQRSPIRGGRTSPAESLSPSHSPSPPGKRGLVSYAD

For experiment [7], the target named is T2, serine/arginine-rich 45 (SR45), SR45.1 isoform (Arabidopsis thaliana) (UniProt Q9SEE9).
T2 sequence: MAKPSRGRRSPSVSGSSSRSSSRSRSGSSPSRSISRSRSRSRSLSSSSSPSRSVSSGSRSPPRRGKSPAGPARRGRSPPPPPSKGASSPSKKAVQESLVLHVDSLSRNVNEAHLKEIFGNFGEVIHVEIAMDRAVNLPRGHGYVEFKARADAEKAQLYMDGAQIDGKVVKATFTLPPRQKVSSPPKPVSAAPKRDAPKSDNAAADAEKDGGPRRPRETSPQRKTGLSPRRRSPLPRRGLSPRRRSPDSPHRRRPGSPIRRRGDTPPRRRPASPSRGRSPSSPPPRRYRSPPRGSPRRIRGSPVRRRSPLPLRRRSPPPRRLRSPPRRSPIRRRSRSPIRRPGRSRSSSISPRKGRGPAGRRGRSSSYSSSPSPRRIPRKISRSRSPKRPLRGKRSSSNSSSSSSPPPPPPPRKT
In words: two-hybrid.

Experiment [8] addresses SR45mutRS2 (Arabidopsis thaliana) (UniProt Q9SEE9). In words: two-hybrid. The source holds these as a separate data set.
Experiment [9] concerns the target SR45mutRS1+RRM (Arabidopsis thaliana) (UniProt Q9SEE9). In words: two-hybrid. This is another data set of the same source.
The target of experiment [10] is SR45mutRRM+RS2 (Arabidopsis thaliana) (UniProt Q9SEE9). In words: two-hybrid. This is another data set of the same source.
In experiment [11] the target is SR45mutRS1+RS2 (Arabidopsis thaliana) (UniProt Q9SEE9). In words: two-hybrid. This is another data set of the same source.
Experiment [12] has as its target SR45mutRS1 (Arabidopsis thaliana) (UniProt Q9SEE9). In words: two-hybrid. This is another data set of the same source.
The target in experiment [13] is SR45mutRS1+RS2:CYFP (Arabidopsis thaliana) (UniProt Q9SEE9). In words: split reporter.
Experiment [14] addresses SR45mutRS1:CYFP (Arabidopsis thaliana) (UniProt Q9SEE9). In words: split reporter.

Read-outs that look alike come from different tables or passages of the source. Results are given in words; binding and its absence hold for the method and conditions named. For some of these results: Binding calls can cover weak binding; strength is not graded here. For some of these results: Binding seen in cells or lysates may run through a third protein. For some of these results: Where a sequence is shown, tags or fusion partners need not be part of it.

With “CypRS64 (Cyclophilin-containing RS domain of 64 kDa) (from UniProt Q9LY75 1-570)”, the binding entry in experiment [1], in experiment [2], in experiment [3], in [4] and in [5] was “no binding” each time.

For the molecule SRPK4 (Arabidopsis thaliana) (enzyme), the binding result in experiment [6] and in experiment [7] was “binds” throughout.

In the case of PININ (Arabidopsis thaliana), the binding result is on record as “no binding” in [6] and “binds” in experiment [7].

B1: CypRS92 (protein, UniProt Q8RWY7 1-837)
chain: MAKKKNPQVFMDVSIDGDPAETMVFELFPEVAPKTSENFRALCTGEKGIGPRSGKPLHYKGSFFHRIMKGSSAQAGDFVNRNGTAGESIYAGKFPDESPKLRHEETGLLSMSIADRDKFGSHFHITFRPNQQLDRNNVVFGKLIQGKEILKKIERVGDEEGKPTVSVKIIRCGEYSGDKKKSDGKKNGKHKKSLRVRRKKRRRHSSSESESSSDSETDSSESDSESDSDLSSPSFLSSSSHERQKKRKRSSKKDKHRRSKQRDKRHEKKRSMRDKRPKRKSRRSPDSLEDSNSGSEASLSDVNVEIGAKKRKHRVSRRTGNSAPAVEKEAESLHQGKRKGPDLLENRGLRSNGISDAASEQISDRQPDIVDDHPSKSRSRSLSPKRTVSKSTSVSPRRSQSKSPSSSPRWNGGRSPAKGSRQVKNLTNSRRESPGSEEKGRHVRRSPTKSVSRSPVRVKKERDISRSPSKSLSRSPLRSPKRVISRSPVRGRIARSPSRSPVRSASRGSLGRGPLRRSSRRSPSRSPVRSSRRSLSRSPIQLSRRSLSRSPTRLSRRSLSRSPIRSPRKSVSRSPVRSSRKSVSRSPVRSSRRRISRSPVRSSRKSVSRSPIRLSRRSISRSPIRLSRRSISRSPVRGRRRISRSPVPARRRSVRPRSPPPDRRRSLSRSASPNGRIRRGRGFSQRFSYARRYRTSPSPDRSPYRFSDRSDRDRFRSRRRFSPSRFRSPLRGRTPPRYRRRSRSVSPGLCYRNRRYSRSPIRSRSPPYRKRRSPSASHSLSPSRSRSRSKSYSKSPIGTGKARSVSRSPSKARSPSKSDSTSSDNSPGGKKGLVAYD
With B1, the binding entry in experiment [8], in experiment [9], in experiment [10], in [11] and in experiment [12] was “no binding” each time.

B2: PRP38:NYFP (protein, UniProt Q8LB54 1-355)
chain: MANRTDPLAKNIRGTNPQNLVEKIVRTKIYQHTFWKEQCFGLTAETLVDKAMELDHLGGTFGGSRKPTPFLCLILKMLQIQPEKEIVVEFIKNDDYKYVRILGAFYLRLTGTDVDVYRYLEPLYNDYRKVRQKLSDGKFSLTHVDEVIEELLTKDYSCDIAMPRLKKRWTLEQNGLLEPRKSVLEDDFEEEEEKEENEGIADGSEDEMDQRRKSPERERERDRDRRRDSHRHRDRDYDRDYDMDRDHDRDYERERGHGRDRDRERDRDHYRERDRDRERGRDRERDRRDRARRRSRSRSRDRKRHETDDVRDREEPKKKKEKKEKMKEDGTDHPNPEIAEMNRLRASLGMKPLRD
For the molecule B2, the binding entry in [13] and in experiment [14] was “binds” throughout.

B3: Cyp59 (protein, UniProt Q6Q151 1-506)
chain: MSVLIVTSLGDIVIDLHSDKCPLTCKNFLKLCKIKYYNGCLFHTVQKDFTAQTGDPTGTGAGGDSIYKFLYGEQARFYKDEIHLDLKHSKTGTVAMASGGENLNASQFYFTLRDDLDYLDGKHTVFGQIAEGFDTLTRINEAYVDPKNRPYKNIRIKHTHILDDPFDDPPQLAEMMPDASPEGKPKEEVKDDVRLEDDWVPMDEELGAQELEEVIREKAAHSSAVVLESIGDIPEAEVKPPDNVLFVCKLNPVTEDEDLHTIFSRFGTVVSADVIRDFKTGDSLCYAFIEFENKESCEQAYFKMDNALIDDRRIHVDFSQSVSKLWSQFRQKDSQKGKGNGCFKCGSTDHIAKDCVGGPSSKFIVKDQNRQHGGGEGYEMVFEGDVHETPKHNSHERERSEKIQRRSPHGNGEGKRQHRDERDDGRRQHDREDARELERKHRERKERESREDEDRRRRRRREESRDKESRRERDEDDHRSHRDYKERRRERDDRHGREARHERRDR
As to B3, the binding result in experiment [8], in [9], in experiment [10], in experiment [11] and in experiment [12] was “no binding” each time.

B4: AFC2 (enzyme, UniProt P51567 1-427)
chain: MEMERVHEFPHTHMDRRPRKRARLGWDVLPQATKAQVGMFCGQEIGNISSFASSGAPSDNSSSLCVKGVARNGSPPWREDDKDGHYIFELGDDLTPRYKIYSKMGEGTFGQVLECWDRERKEMVAVKIVRGVKKYREAAMIEIEMLQQLGKHDKGGNRCVQIRNWFDYRNHICIVFEKLGSSLYDFLRKNNYRSFPIDLVREIGWQLLECVAFMHDLRMIHTDLKPENILLVSSDYVKIPEYKGSRLQRDVCYKRVPKSSAIKVIDFGSTTYERQDQTYIVSTRHYRAPEVILGLGWSYPCDVWSVGCIIVELCTGEALFQTHENLEHLAMMERVLGPFPQQMLKKVDRHSEKYVRRGRLDWPDGATSRDSLKAVLKLPRLQNLIMQHVDHSAGELINMVQGLLRFDPSERITAREALRHPFFARRR
In the case of B4, the binding entry in [8] is “binds”; in experiment [9], “no binding”; in experiment [10], “binds”; in experiment [11], “no binding”; in [12], “no binding”.

B5: SR34:NYFP (protein, UniProt O22315 1-303)
chain: MSSRSSRTVYVGNLPGDIREREVEDLFSKYGPVVQIDLKVPPRPPGYAFVEFDDARDAEDAIHGRDGYDFDGHRLRVELAHGGRRSSDDTRGSFNGGGRGGGRGRGDGGSRGPSRRSEFRVLVTGLPSSASWQDLKDHMRKGGDVCFSQVYRDARGTTGVVDYTCYEDMKYALKKLDDTEFRNAFSNGYVRVREYDSRKDSRSPSRGRSYSKSRSRSRGRSVSRSRSRSRSRSRSPKAKSSRRSPAKSTSRSPGPRSKSRSPSPRRSRSRSRSPLPSVQKEGSKSPSKPSPAKSPIHTRSPSR
For B5, the binding entry is on record as “no binding” in experiment [13] and “binds” in experiment [14].

The record behind these values is publication doi:10.1101/2023.08.07.552250.
